Results reported in US20120164140A1.
No constants are given. Whether binding was seen depends on the method and setting. Some binding calls cover weakened binding; strength is not graded here. Tags and fused reporters may be left off the sequences shown.

Key:
[1] = target: T1, soluble hemojuvelin fusion protein (Hjv.Fc): extracellular domain of mouse Hjv fused to the Fc portion of human immunoglobulin G (mouse; human) (UniProt Q7TQ32); experiment: competition: 80 ng cold BMP-4 against ^125I-BMP-2 or ^125I-BMP-4 for Hjv.Fc, protein A plates, gamma counting
T1 sequence (looked up): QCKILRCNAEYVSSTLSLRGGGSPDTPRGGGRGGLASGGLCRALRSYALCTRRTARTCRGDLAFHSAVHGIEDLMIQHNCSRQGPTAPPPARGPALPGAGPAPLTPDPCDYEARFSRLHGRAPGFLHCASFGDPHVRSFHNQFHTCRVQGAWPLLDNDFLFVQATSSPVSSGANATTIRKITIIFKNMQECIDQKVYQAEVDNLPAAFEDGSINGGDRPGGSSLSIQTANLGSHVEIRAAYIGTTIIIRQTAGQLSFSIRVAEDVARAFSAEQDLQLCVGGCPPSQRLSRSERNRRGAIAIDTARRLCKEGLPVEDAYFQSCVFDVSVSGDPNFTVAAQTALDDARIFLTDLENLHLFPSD

[2] = target: T2, ^125I-labeled BMP-2 (human) (UniProt P12643); experiment: DSS crosslinking in solution, Protein A bead precipitation, nonreducing SDS-PAGE, autoradiography
T2 sequence (iodinated with ^125I by the modified chloramine-T method, looked up): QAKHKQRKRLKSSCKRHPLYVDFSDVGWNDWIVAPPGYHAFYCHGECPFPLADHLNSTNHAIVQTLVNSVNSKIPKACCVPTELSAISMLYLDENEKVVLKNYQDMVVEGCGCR

[3] = target: T2, ^125I-labeled BMP-2 (human); experiment: 60 ng Hjv.Fc incubated with ^125I-ligand in solution, capture on protein A coated plates, gamma counting
[4] = target: T3, ^125I-labeled BMP-4 (human) (UniProt P12644); experiment: as above
T3 sequence (iodinated with ^125I by the modified chloramine-T method, looked up): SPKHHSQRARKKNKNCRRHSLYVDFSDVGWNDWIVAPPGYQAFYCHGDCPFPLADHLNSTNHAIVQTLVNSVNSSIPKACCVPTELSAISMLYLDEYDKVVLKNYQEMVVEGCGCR

[5] = target: T2, ^125I-labeled BMP-2 (human); experiment: 60 ng Hjv.Fc with ^125I-ligand overnight, protein A coated plates, gamma counter
[6] = target: T3, ^125I-labeled BMP-4 (human); experiment: as above
[7] = target: T2, ^125I-labeled BMP-2 (human); experiment: restatement in Example 8 of the solution binding result
[8] = target: T3, ^125I-labeled BMP-4 (human); experiment: as above
[9] = target: T2, ^125I-labeled BMP-2 (human); experiment: summary of solution binding and crosslinking assays
[10] = target: T3, ^125I-labeled BMP-4 (human); experiment: as above
[11] = target: T2, ^125I-labeled BMP-2 (human); experiment: DSS crosslinking, Protein A bead precipitation, nonreducing SDS-PAGE, autoradiography
[12] = target: T1, soluble hemojuvelin fusion protein (Hjv.Fc): extracellular domain of mouse Hjv fused to the Fc portion of human immunoglobulin G (mouse; human); experiment: DSS crosslinking of ^125I-BMP-2 to Hjv.Fc with excess unlabeled BMP-2 as competitor, autoradiography
[13] = target: T1, soluble hemojuvelin fusion protein (Hjv.Fc): extracellular domain of mouse Hjv fused to the Fc portion of human immunoglobulin G (mouse; human); experiment: competition: 80 ng cold BMP-2 against ^125I-BMP-2 or ^125I-BMP-4 for Hjv.Fc, protein A plates, gamma counting

Measured: binding

B1: BMP-4 (unlabeled) (ligand, UniProt P12644 293-408, looked up)
chain: SPKHHSQRARKKNKNCRRHSLYVDFSDVGWNDWIVAPPGYQAFYCHGDCPFPLADHLNSTNHAIVQTLVNSVNSSIPKACCVPTELSAISMLYLDEYDKVVLKNYQEMVVEGCGCR
binds: [1]

B2: soluble hemojuvelin fusion protein (Hjv.Fc): extracellular domain of mouse Hjv fused to the Fc portion of human immunoglobulin G (Fc fusion, UniProt Q7TQ32 33-393, looked up, not shown: a dimerising Fc or GST)
chain: QCKILRCNAEYVSSTLSLRGGGSPDTPRGGGRGGLASGGLCRALRSYALCTRRTARTCRGDLAFHSAVHGIEDLMIQHNCSRQGPTAPPPARGPALPGAGPAPLTPDPCDYEARFSRLHGRAPGFLHCASFGDPHVRSFHNQFHTCRVQGAWPLLDNDFLFVQATSSPVSSGANATTIRKITIIFKNMQECIDQKVYQAEVDNLPAAFEDGSINGGDRPGGSSLSIQTANLGSHVEIRAAYIGTTIIIRQTAGQLSFSIRVAEDVARAFSAEQDLQLCVGGCPPSQRLSRSERNRRGAIAIDTARRLCKEGLPVEDAYFQSCVFDVSVSGDPNFTVAAQTALDDARIFLTDLENLHLFPSD
binds: [2] | [3] | [4] | [5] | [6] | [7] | [8] | [9] | [10] | [11]

B3: BMP-2 (unlabeled) (ligand, UniProt P12643 283-396, looked up)
chain: QAKHKQRKRLKSSCKRHPLYVDFSDVGWNDWIVAPPGYHAFYCHGECPFPLADHLNSTNHAIVQTLVNSVNSKIPKACCVPTELSAISMLYLDENEKVVLKNYQDMVVEGCGCR
binds: [12] | [13]
